Source: PubChem BioAssay AID624297 (National Center for Advancing Translational Sciences (NCATS), 2012)
In all, about 340,000 compounds went through this assay and about 6,200 (1.8%) were called active. The shares of active, inactive and inconclusive entries below differ from those in the screen. Calls follow the shape of the dose curve; as a rule, active = well fitted activation curve with a large enough effect; inconclusive = small, poorly fitted or top-dose-only effect; inactive = no such curve, though single readings can be large or run the other way. Potencies beside an inconclusive call are fits to weak or partial responses and may not hold up.

assay: A quantitative high throughput screen for small molecules that induce DNA re-replication in SW480 colon adenocarcinoma cells.; also: nearly all actives have a fitted effect of over 55% in size; as to re-replication activation: % of control where 0% means no effect; settings: Hoechst DNA content imaging, 48 h; re-replication activation: at 46.1 µM (top of the series)
Method in brief: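 DNA re-replication was detected as more nuclei of elevated Hoechst intensity after 48 hr exposure to compound (23 nL pinned per well of 250 cells).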
Potency is read from the fitted curve at half-maximal effect.

SMILES	re-replication activation	Potency
CCCCNS(=O)(=O)c1ccc2nc(SCC(=O)c3ccccc3OC)[nH]c2c1	inactive: -4.03%	
O=c1c2c(nc3cc(-c4ccccc4Cl)[nH]n13)CCS2		inconclusive: 29.1 µM [activator, partial curve, poor fit]
CCC(C)NCCOc1ccc(C(C)(C)c2ccccc2)cc1 (centres undefined)	inactive: 5.42%	
Cc1onc(C(=O)NCCc2ccccc2)c1[N+](=O)[O-]		inconclusive: 18.4 µM [activator, single point]
CCC(=O)N/C(N)=N/c1nc(C)c2cc(C)c(C)cc2n1		inconclusive: 4.61 µM [activator, full curve, poor fit]
COc1ccc(CCNC(=O)c2nn(C)cc2Cl)cc1		inconclusive: 5.8 µM [activator, single point]
COc1ccc(OC)c2sc(N(CCCN(C)C)C(=O)CCS(=O)(=O)c3ccccc3)nc12		inconclusive: 3.66 µM [activator, full curve, poor fit]
CC(C)(CNC(=O)/C=C/c1ccc(F)cc1)CNC(=O)/C=C/c1ccc(F)cc1	inactive: -2.18%	
O=C1C=C(Nc2ccc(O)cc2)C(=O)c2ccccc21		inconclusive: 29.1 µM [activator, single point]
O=C(O)c1ccc(NS(=O)(=O)Cc2ccc(Cl)c(Cl)c2)cc1	inactive: -5%	
N#C/C(C(=O)N1CCOCC1)=C1/SC(Cc2ccc(F)cc2)C(=O)N1c1ccccc1 (centres undefined)		inconclusive: 0.0046 µM [activator, full curve, poor fit]
Cc1ccc(C(C[N+](=O)[O-])c2c(C)[nH]n(-c3ccccc3)c2=O)cc1 (centres undefined)		inconclusive: 16.4 µM [activator, single point]
CCOC(=O)c1c(NC(=O)/C=C/C(=O)O)sc(C)c1-c1ccc(C(C)(C)C)cc1		active: 18.4 µM
Cc1ccc(C)c(CN2CCC(CNC(=O)Nc3ccc(C)c(C)c3)CC2)c1		inconclusive: 23.1 µM [activator, single point]
Cc1cccc(-n2c(O)c(C=NC3CCS(=O)(=O)C3)c3ccccc3c2=O)c1 (centres undefined)	inactive: 0.741%	
COc1ccccc1N1C(=O)c2ccccc2NC1c1ccc(O)cc1 (centres undefined)	inactive: -9.51%	
CC(=O)c1cccc(NC(=O)CCNS(=O)(=O)c2cccc(C(C)=O)c2)c1		inconclusive: 13 µM [activator, single point]
Cc1cc(=O)oc2c3c(cc(OCC(=O)NCC4CCC(C(=O)O)CC4)c12)OC(C)(C)CC3 (centres undefined)	inactive: -8.16%	
CC(C)c1ccc(NC(=O)Nc2cnccn2)cc1		inconclusive: 29.1 µM [activator, single point]
COc1ccc(/C=C(/NC(=O)c2ccco2)C(=O)N2CCc3ccccc32)cc1OC		inconclusive: 32.6 µM [activator, partial curve, poor fit]
CCOC(=O)CC1=C(C(=O)OCC)C(c2cccs2)C(C#N)=C(N)O1 (centres undefined)	inactive: -6.83%	
NS(=O)(=O)c1ccc(NC(=O)c2cccc3cc4ccccc4nc23)cc1		inconclusive: 13 µM [activator, partial curve]
OCC1(Cc2cccc(F)c2)CCN(Cc2cccc3nccnc23)CC1		inconclusive: 11.2 µM [activator, single point]

SMILES	re-replication activation	Potency
Cc1nc(SCC(=O)N2CCCCC2)c2c(C)c(C)sc2n1		inconclusive: 15.8 µM [activator, single point]
Cn1cnnc1SCc1ccc(C(=O)N=Nc2c(O)n(C)c3ccccc23)cc1		inconclusive: 0.731 µM [activator, partial curve, poor fit]
O=C(N/N=C\c1ccc(-c2ccccc2[N+](=O)[O-])o1)C1COc2ccccc2O1 (centres undefined)		inconclusive: 20.6 µM [activator, partial curve, poor fit]
CCOc1ccc(CN(C(=O)c2ccccn2)c2ccc(OC)c(Cl)c2)cc1		inconclusive: 23.1 µM [activator, single point]
CS(=O)(=O)c1ccc(-n2nnc3ccccc32)c([N+](=O)[O-])c1		inconclusive: 16.4 µM [activator, single point]
O=C(/C=C/c1cccc([N+](=O)[O-])c1)c1ccc2c(c1)OCCO2		inconclusive: 18.4 µM [activator, single point]
COc1ccc(-n2ccnc2SCC(=O)NCc2ccc(F)cc2)c(OC)c1		inconclusive: 20.6 µM [activator, partial curve, poor fit]
COc1ccc(Cc2nnc(N/N=C/c3ccc(C)o3)[nH]c2=O)cc1	inactive: -6.31%	
COc1ccc(CCNC2=CC(=O)N(c3ccc(F)cc3)C2=O)cc1		inconclusive: 32.6 µM [activator, single point]
Cc1ccc(-c2c(C#N)c(N)nc3c2CCCC3)s1		inconclusive: 18.4 µM [activator, single point]
O=C(c1sc(N2CCOCC2)nc1-c1ccccc1)N1CCCCC1	inactive: 1.67%	
COc1ccc2[nH]cc(C(=O)C(=O)N3CCCCC3)c2c1		inconclusive: 2.06 µM [activator, partial curve, poor fit]
Cc1ccccc1NC(=O)CSc1ccncc1		inconclusive: 11.6 µM [activator, partial curve, poor fit]
CC(=O)Nc1sc2c(c1-c1nc3ccccc3s1)CN(C(C)C)CC2		active: 2.59 µM
Nc1nc(SCc2ccccc2)cc(SCc2ccccc2)n1	inactive: 7.81%	
O=C(CN1CCCN(S(=O)(=O)c2ccc(Br)s2)CC1)Nc1ccc(Cl)cc1		inconclusive: 29.1 µM [activator, single point]
O=C1C2=C(NC(=S)NC2c2ccc(Cl)cc2)NC(c2ccc(Cl)cc2)N1c1ccc(Cl)cc1 (centres undefined)		inconclusive: 25.9 µM [activator, single point]
O=C(O)CSc1cc(NS(=O)(=O)c2ccc(Cl)cc2)c2ccccc2c1O		inconclusive: 20.6 µM [activator, single point]
CC(=O)N=c1c(C#N)cc2c(=O)n3ccccc3nc2n1Cc1ccccc1		active: 5.8 µM
Cc1ccccc1-n1c(SCc2cccc(F)c2)nc2[nH]ncc2c1=O	inactive: 7.01%	
Cc1cc(C)cc(NC(=O)c2cccc3c2C(=O)N(C2CCCCC2)C3)c1	inactive: -5%	
O=C(OCn1ncc(Br)c(Br)c1=O)c1ccccc1Cl		active: 5.62 µM
CC1CCc2c(sc(NC(=O)c3ccccc3C(=O)O)c2C#N)C1 (centres undefined)		inconclusive: 29.1 µM [activator, single point]

A stretch from further up:
SMILES	re-replication activation	Potency
O=C(CN1CCCN(S(=O)(=O)c2ccc(Br)s2)CC1)Nc1ccc(Cl)cc1		inconclusive: 29.1 µM [activator, single point]
O=C1C2=C(NC(=S)NC2c2ccc(Cl)cc2)NC(c2ccc(Cl)cc2)N1c1ccc(Cl)cc1 (centres undefined)		inconclusive: 25.9 µM [activator, single point]
O=C(O)CSc1cc(NS(=O)(=O)c2ccc(Cl)cc2)c2ccccc2c1O		inconclusive: 20.6 µM [activator, single point]

More structures

SMILES	re-replication activation	Potency
CCCc1nnc(NC(=O)c2cc3ccccc3oc2=O)s1		inconclusive: 0.116 µM [activator, partial curve, poor fit]
Cc1ccc(S(=O)(=O)N(Cc2cc3ccccc3[nH]c2=O)CC2CCCO2)cc1 (centres undefined)		inconclusive: 23.1 µM [activator, partial curve, poor fit]
Cc1ccsc1C1C(C#N)=C(N)Oc2n[nH]c(C)c21 (centres undefined)	inactive: 2.32%	
COc1ccc(Cn2c(=O)n(Cc3ccco3)c(=N)c3c4c(sc32)COC(C)(C)C4)cc1	inactive: -7.32%	
Nc1nc(-c2ccccc2)nc2sc3c(c12)CCCC3		inconclusive: 0.0164 µM [activator, full curve, poor fit]
O=[N+]([O-])c1cc(Cl)ccc1Sc1cccc2cccnc12	inactive: 3.18%	
CCOC(=O)c1c(NC(=S)N2CCN(C)CC2)sc(C)c1-c1ccccc1		inconclusive: 29.1 µM [activator, single point]
C=CCc1ccc(OCCCCNC2CCCC2)c(OC)c1		inconclusive: 23.1 µM [activator, single point]
Cc1ccc(NC(=O)CN(CCc2ccccc2)S(C)(=O)=O)cc1	inactive: -2.83%	
Cc1cc(C)c(C)c(OCCCN(C)C)c1		inconclusive: 0.231 µM [activator, full curve, poor fit]
Cc1cccc(OCC(=O)Nc2ccc3c(c2)nc(CCN2CCN(c4ccccn4)CC2)n3C)c1		inconclusive: 0.184 µM [activator, full curve, poor fit]
O=C(COc1ccccc1)Nc1cccc(-c2cn3cccnc3n2)c1		inconclusive: 23.1 µM [activator, single point]
Oc1c(C(c2ccccc2)N2CCCCC2)sc2ncnn12 (centres undefined)	inactive: -10.2%	
CCOC(=O)C1=C(N)N(c2ccccc2)C(=O)C1		inconclusive: 29.1 µM [activator, single point]
Cc1nnc(SCc2ccc([N+](=O)[O-])cc2)o1		inconclusive: 29.1 µM [activator, single point]
O=C(O)c1ccc(N/N=C/C2=Cc3ccccc3OC2)cc1		inconclusive: 18.4 µM [activator, single point]
CCOc1cccc(C(=O)Nc2ccc(NC(=O)c3ccccc3)c(C)c2)c1		inconclusive: 20.6 µM [activator, partial curve, poor fit]
CC1(C)Cc2ccccc2C(NNC(=O)c2ccccn2)=N1		inconclusive: 29.1 µM [activator, single point]
CCC1=Nc2cc(C(=O)NCc3cccnc3)ccc2Sc2ccc(C)cc21		active: 3.66 µM
CCN(C(=O)CSc1nc2n[nH]c(C)c2c(=N)n1-c1ccc(Cl)c(C)c1)c1cccc(C)c1		inconclusive: 18.4 µM [activator, single point]
COc1ccc(C(=O)NCc2cc(C)nc3ccccc23)cc1		inconclusive: 25.9 µM [activator, single point]
CCNC(=O)/C(C#N)=C/c1c(N2CCN(c3ccc(OC)cc3)CC2)nc2c(C)cccn2c1=O		inconclusive: 18.4 µM [activator, single point]
CCOc1ccc(Br)cc1C1C(C(=O)OC)=C(N)Oc2cc(N(C)C)ccc21 (centres undefined)		inconclusive: 29.1 µM [activator, single point]
